The record followed here is patent US20120149635A1.

No constants are given. Whether binding was seen depends on the method and setting. Some binding calls cover weakened binding; strength is not graded here.

Assay [1] concerns the target T1, calcitonin receptor on T47D cells (UniProt P30988).
T1 sequence (looked up): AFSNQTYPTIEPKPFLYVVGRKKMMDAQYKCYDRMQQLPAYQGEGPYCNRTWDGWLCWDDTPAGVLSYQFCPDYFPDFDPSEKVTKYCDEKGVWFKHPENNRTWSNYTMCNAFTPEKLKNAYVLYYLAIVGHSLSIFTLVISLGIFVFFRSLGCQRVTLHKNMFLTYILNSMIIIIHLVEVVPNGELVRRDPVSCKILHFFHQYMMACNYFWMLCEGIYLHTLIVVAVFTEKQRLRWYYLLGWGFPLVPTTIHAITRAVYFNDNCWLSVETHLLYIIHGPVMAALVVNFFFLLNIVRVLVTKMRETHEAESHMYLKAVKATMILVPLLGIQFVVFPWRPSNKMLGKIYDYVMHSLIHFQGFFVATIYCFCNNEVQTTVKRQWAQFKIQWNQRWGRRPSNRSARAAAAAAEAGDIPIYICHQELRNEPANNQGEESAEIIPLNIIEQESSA
Put plainly: assay that measures binding to calcitonin receptors on T47D cells.

The target in assay [2] is T1, calcitonin receptor on T47D cells. In words: binding to calcitonin receptors on T47D cells (FIG. 4).

B1: UGP269 (SEQ ID NO:12) (peptide)
peptide: CSNLSTCVLGKLSQELHKLQTYPRTNTGSNTY
As to B1, the binding entry in assay [1] and in assay [2] was “binds” throughout.

B2: UGP281 (SEQ ID NO:14) (peptide)
peptide: CSNLSTCVLGKLSQELHKLQTYPRTDVGANTY
modifications: acylated at the N-terminus with acetate (acetyl group on cysteine-1)
Regarding B2, the binding entry in assay [1] and in assay [2] was “binds” in each case.

B3: salmon calcitonin (peptide)
peptide: CSNLSTCVLGKLSQELHKLQTYPRTNTGSGTP
With B3, the binding result in assay [1] and in assay [2] was “binds” throughout.

B4: UGP 271 (SEQ ID NO:13) (peptide)
peptide: CSNLSTCVLGKLSQELHKLQTYPRTDVGANTY
Consider B4, for which the binding entry in assay [1] and in assay [2] was “binds” throughout.
